Test results reported in PMC11982335.
Results are given in words; binding and its absence hold for the method and conditions named. Binding seen in cells or lysates may run through a third protein. These calls come from enrichment with a bait or labelling near it, and not all partners need be listed.

By UniProt entry, the sequences of proteins in these tests, tags left out.
UniProt Q9UBN7: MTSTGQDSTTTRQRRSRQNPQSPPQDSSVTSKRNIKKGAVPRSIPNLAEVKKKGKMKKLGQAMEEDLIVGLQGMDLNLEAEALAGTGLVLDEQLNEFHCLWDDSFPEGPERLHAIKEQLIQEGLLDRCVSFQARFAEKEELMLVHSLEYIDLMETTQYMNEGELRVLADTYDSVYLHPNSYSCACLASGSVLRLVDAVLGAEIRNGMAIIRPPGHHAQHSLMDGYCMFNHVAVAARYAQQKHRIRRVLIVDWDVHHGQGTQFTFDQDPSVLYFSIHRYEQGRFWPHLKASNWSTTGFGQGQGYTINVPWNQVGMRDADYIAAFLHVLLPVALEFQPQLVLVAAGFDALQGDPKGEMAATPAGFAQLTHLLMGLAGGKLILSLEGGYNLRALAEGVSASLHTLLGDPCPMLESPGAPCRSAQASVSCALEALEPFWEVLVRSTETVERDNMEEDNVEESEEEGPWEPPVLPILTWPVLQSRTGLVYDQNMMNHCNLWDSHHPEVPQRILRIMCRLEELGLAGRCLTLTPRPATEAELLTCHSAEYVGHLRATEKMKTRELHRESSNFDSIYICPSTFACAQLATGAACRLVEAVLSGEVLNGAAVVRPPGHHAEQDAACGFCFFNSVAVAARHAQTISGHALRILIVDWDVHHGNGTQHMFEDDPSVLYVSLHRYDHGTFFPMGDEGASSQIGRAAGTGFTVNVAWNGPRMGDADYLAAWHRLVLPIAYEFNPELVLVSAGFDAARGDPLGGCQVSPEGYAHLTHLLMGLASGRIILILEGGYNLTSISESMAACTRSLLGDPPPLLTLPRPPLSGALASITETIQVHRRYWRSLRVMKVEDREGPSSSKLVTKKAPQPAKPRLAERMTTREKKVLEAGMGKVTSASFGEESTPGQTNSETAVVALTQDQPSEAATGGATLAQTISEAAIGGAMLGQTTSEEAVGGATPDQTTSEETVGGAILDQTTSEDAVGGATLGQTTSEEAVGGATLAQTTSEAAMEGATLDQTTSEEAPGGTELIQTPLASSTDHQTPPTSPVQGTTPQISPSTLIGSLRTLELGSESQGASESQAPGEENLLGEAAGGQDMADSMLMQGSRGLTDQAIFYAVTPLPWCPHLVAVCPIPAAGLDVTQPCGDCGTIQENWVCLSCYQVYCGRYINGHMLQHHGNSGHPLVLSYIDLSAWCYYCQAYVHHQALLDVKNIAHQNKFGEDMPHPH
UniProt Q9NRL2: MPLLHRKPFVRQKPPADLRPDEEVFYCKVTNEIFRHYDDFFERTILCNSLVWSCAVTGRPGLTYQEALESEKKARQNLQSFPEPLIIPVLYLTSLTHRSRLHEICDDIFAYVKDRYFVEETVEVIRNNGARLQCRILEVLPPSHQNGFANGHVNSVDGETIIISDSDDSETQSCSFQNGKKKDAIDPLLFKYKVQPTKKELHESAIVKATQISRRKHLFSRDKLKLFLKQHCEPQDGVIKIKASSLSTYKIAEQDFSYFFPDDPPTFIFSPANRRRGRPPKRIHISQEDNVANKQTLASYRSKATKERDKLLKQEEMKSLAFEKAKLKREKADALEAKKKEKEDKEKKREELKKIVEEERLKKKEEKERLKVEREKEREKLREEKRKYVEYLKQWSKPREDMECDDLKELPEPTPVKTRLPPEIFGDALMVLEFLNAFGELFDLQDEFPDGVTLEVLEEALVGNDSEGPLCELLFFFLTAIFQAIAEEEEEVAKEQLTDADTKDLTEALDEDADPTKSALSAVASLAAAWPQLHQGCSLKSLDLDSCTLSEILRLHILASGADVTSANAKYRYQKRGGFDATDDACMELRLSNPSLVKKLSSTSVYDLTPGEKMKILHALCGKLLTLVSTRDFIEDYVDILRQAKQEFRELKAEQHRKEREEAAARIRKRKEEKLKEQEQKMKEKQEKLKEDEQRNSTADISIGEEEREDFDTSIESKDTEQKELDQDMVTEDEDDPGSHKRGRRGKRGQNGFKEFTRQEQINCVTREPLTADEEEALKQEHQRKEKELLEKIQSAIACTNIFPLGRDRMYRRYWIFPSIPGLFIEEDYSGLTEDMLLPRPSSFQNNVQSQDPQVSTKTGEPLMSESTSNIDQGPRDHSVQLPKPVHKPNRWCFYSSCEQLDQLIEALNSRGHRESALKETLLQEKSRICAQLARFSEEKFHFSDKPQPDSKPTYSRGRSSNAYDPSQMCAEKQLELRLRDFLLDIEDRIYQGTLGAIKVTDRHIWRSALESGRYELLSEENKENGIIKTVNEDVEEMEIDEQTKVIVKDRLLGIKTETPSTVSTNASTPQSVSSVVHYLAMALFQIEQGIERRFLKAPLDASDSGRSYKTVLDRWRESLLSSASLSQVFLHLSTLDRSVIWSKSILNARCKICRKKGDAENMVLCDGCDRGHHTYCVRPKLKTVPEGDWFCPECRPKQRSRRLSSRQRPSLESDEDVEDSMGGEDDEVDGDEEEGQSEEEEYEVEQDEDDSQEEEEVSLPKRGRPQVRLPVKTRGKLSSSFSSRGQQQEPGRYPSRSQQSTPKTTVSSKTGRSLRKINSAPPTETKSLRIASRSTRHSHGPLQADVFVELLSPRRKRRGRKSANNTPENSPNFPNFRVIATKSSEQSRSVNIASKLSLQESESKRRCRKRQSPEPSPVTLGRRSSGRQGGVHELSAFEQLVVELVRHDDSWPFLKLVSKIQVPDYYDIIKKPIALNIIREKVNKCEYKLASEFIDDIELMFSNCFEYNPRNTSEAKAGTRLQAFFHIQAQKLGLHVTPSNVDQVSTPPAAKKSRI

Target: Flag- and HA-tagged USP10 (ubiquitin-specific peptidase 10) (human) (UniProt Q14694)
Assay: affinity purification with mass spectrometry; Flag- and HA-tagged USP10 enriched with anti-DYKDDDDK beads and anti-HA beads; SDS-PAGE, protein bands analysed by LC-MS/MS; compared to an IgG group

binding | Molecule
binds | HDAC6 (from UniProt Q9UBN7 1-1215)
binds | BAZ1A (bromodomain adjacent to zinc finger domain, 1A), endogenous (from UniProt Q9NRL2 1-1556)
binds | DDX1 (protein, UniProt Q92499 1-740) MAAFSEMGVMPEIAQAVEEMDWLLPTDIQAESIPLILGGGDVLMAAETGSGKTGAFSIPVIQIVYETLKDQQEGKKGKTTIKTGASVLNKWQMNPYDRGSAFAIGSDGLCCQSREVKEWHGCRATKGLMKGKHYYEVSCHDQGLCRVGWSTMQASLDLGTDKFGFGFGGTGKKSHNKQFDNYGEEFTMHDTIGCYLDIDKGHVKFSKNGKDLGLAFEIPPHMKNQALFPACVLKNAELKFNFGEEEFKFPPKDGFVALSKAPDGYIVKSQHSGNAQVTQTKFLPNAPKALIVEPSRELAEQTLNNIKQFKKYIDNPKLRELLIIGGVAARDQLSVLENGVDIVVGTPGRLDDLVSTGKLNLSQVRFLVLDEADGLLSQGYSDFINRMHNQIPQVTSDGKRLQVIVCSATLHSFDVKKLSEKIMHFPTWVDLKGEDSVPDTVHHVVVPVNPKTDRLWERLGKSHIRTDDVHAKDNTRPGANSPEMWSEAIKILKGEYAVRAIKEHKMDQAIIFCRTKIDCDNLEQYFIQQGGGPDKKGHQFSCVCLHGDRKPHERKQNLERFKKGDVRFLICTDVAARGIDIHGVPYVINVTLPDEKQNYVHRIGRVGRAERMGLAISLVATEKEKVWYHVCSSRGKGCYNTRLKEDGGCTIWYNEMQLLSEIEEHLNCTISQVEPDIKVPVDEFDGKVTYGQKRAAGGGSYKGHVDILAPTVQELAALEKEAQTSFLHLGYLPNQLFRTF
